Source: US5204326A, “Polypeptide derivatives and calcium metabolism improving agent” (Otsuka Pharmaceutical Co., Ltd., priority 1989, dated 1993)
Not every detail of the peptide structures is certain; ends, links or a residue may be inferred. Bridge positions count the residues as written; N and C are the ends. Peptide text beside a SMILES is read from it.

What was measured:
[1] = test system: concentration of calcium in the serum; assay: Biological Activity Test--I: serum calcium after intravenous administration; type: in vivo, Wister strain male rat; settings: one hour after administration, control group 9.69-10.68
[2] = test system: concentration of calcium in the serum; assay: Biological Activity Test--II: intestinal absorbability, serum calcium after intraduodenal administration; type: in vivo, Wister strain male rat; settings: intraduodenal, 1,000 ng/kg, one hour, average of 3-4 rats

Row | Compound | Concentration of calcium in the serum sample ([1]; 6.25 ng/kg) [mg/dL] | Concentration of calcium in the serum sample ([1]; 12.5 ng/kg) [mg/dL] | Concentration of calcium in the serum sample ([1]; 25.0 ng/kg) [mg/dL] | Concentration of calcium in serum sample ([2]; with FK-448 (20 mg/kg) + citric acid (50 mg/kg)) [mg/dL] | Concentration of calcium in serum sample ([2]; with Leupeptin (20 mg/kg) + citric acid (50 mg/kg)) [mg/dL]
1 | CC(C)C[C@H](NC(=O)[C@H](CCCCN)NC(=O)CNC(=O)[C@H](CC(C)C)NC(=O)[C@@H](NC(=O)[C@@H]1CCC(=O)NCC(=O)N[C@@H](C)C(=O)N[C@@H](CO)C(=O)N[C@@H](CC(C)C)C(=O)N[C@@H](CO)C(=O)N[C@@H]([C@@H](C)O)C(=O)N1)C(C)C)C(=O)N[C@@H](CO)C(=O)N[C@@H](CCC(N)=O)C(=O)N[C@@H](CCC(=O)O)C(=O)N[C@@H](CC(C)C)C(=O)N[C@@H](Cc1c[nH]cn1)C(=O)N[C@@H](CCCCN)C(=O)N[C@@H](CC(C)C)C(=O)N[C@@H](CCC(N)=O)C(=O)N[C@H](C(=O)N1CCC[C@H]1C(=O)N[C@@H](CCC(N)=O)C(=O)N[C@H](C(=O)N[C@@H](CC(=O)O)C(=O)N[C@H](C(=O)NCC(=O)N[C@@H](C)C(=O)NCC(=O)N[C@H](C(=O)N1CCC[C@H]1C(N)=O)[C@@H](C)O)C(C)C)[C@@H](C)O)[C@@H](C)O [Example 26] (GASLSTEVLGKLSQELHKLQTPQTDVGAGTP-NH2; lactam N-7) | 9.22 | 8.21 | 7.51 | – | –
2 | CC(C)C[C@H](NC(=O)[C@H](CCCCN)NC(=O)CNC(=O)[C@H](CC(C)C)NC(=O)[C@@H](NC(=O)[C@@H]1CCC(=O)NCC(=O)N[C@@H](C)C(=O)N[C@@H](CO)C(=O)N[C@@H](CC(C)C)C(=O)N[C@@H](CO)C(=O)N[C@@H]([C@@H](C)O)C(=O)N1)C(C)C)C(=O)N[C@@H](CO)C(=O)N[C@@H](CCC(N)=O)C(=O)N[C@@H](CCC(=O)O)C(=O)N[C@@H](CC(C)C)C(=O)N[C@@H](Cc1c[nH]cn1)C(=O)N[C@@H](CCCCN)C(=O)N[C@@H](CC(C)C)C(=O)N[C@@H](CCC(N)=O)C(=O)N[C@H](C(=O)N[C@@H](Cc1ccc(O)cc1)C(=O)N1CCC[C@H]1C(=O)N[C@@H](CCCNC(=N)N)C(=O)N[C@H](C(=O)N[C@@H](CC(=O)O)C(=O)N[C@H](C(=O)NCC(=O)N[C@@H](C)C(=O)NCC(=O)N[C@H](C(=O)N1CCC[C@H]1C(N)=O)[C@@H](C)O)C(C)C)[C@@H](C)O)[C@@H](C)O [Example 29] (GASLSTEVLGKLSQELHKLQTYPRTDVGAGTP-NH2; lactam N-7) | 9.35 | 8.57 | 7.72 | – | –
3 | CC(C)C[C@H](NC(=O)[C@H](CCCCN)NC(=O)CNC(=O)[C@H](CC(C)C)NC(=O)[C@@H](NC(=O)[C@@H]1CCC(=O)NCC(=O)N[C@@H](C)C(=O)N[C@@H](CO)C(=O)N[C@@H](CC(C)C)C(=O)N[C@@H](CO)C(=O)N[C@@H]([C@@H](C)O)C(=O)N1)C(C)C)C(=O)N[C@@H](CO)C(=O)N[C@@H](CCC(N)=O)C(=O)N[C@@H](CCC(=O)O)C(=O)N[C@@H](CC(C)C)C(=O)N[C@@H](Cc1c[nH]cn1)C(=O)N[C@@H](CCCCN)C(=O)N[C@@H](CC(C)C)C(=O)N[C@@H](CCC(N)=O)C(=O)N[C@H](C(=O)N1CCC[C@H]1C(=O)N[C@@H](CCCNC(=N)N)C(=O)N[C@H](C(=O)N[C@@H](CC(=O)O)C(=O)N[C@H](C(=O)NCC(=O)N[C@@H](C)C(=O)NCC(=O)N[C@H](C(=O)N1CCC[C@H]1C(N)=O)[C@@H](C)O)C(C)C)[C@@H](C)O)[C@@H](C)O [Example 30] (GASLSTEVLGKLSQELHKLQTPRTDVGAGTP-NH2; lactam N-7) | 9.02 | 8.14 | 7.31 | 7.63 | –
4 | CC(C)C[C@H](NC(=O)[C@H](CCCCN)NC(=O)CNC(=O)[C@H](CC(C)C)NC(=O)[C@@H](NC(=O)[C@@H]1CCC(=O)NCC(=O)N[C@@H](C)C(=O)N[C@@H](CO)C(=O)N[C@@H](CC(C)C)C(=O)N[C@@H](CO)C(=O)N[C@@H]([C@@H](C)O)C(=O)N1)C(C)C)C(=O)N[C@@H](CO)C(=O)N[C@@H](CCC(N)=O)C(=O)N[C@@H](CCC(=O)O)C(=O)N[C@@H](CC(C)C)C(=O)N[C@@H](Cc1c[nH]cn1)C(=O)N[C@@H](CCCCN)C(=O)N[C@@H](CCC(N)=O)C(=O)N[C@H](C(=O)N[C@@H](Cc1ccc(O)cc1)C(=O)N1CCC[C@H]1C(=O)N[C@@H](CCCNC(=N)N)C(=O)N[C@H](C(=O)N[C@@H](CC(=O)O)C(=O)N[C@H](C(=O)NCC(=O)N[C@@H](C)C(=O)NCC(=O)N[C@H](C(=O)N1CCC[C@H]1C(N)=O)[C@@H](C)O)C(C)C)[C@@H](C)O)[C@@H](C)O [Example 28] (GASLSTEVLGKLSQELHKQTYPRTDVGAGTP-NH2; lactam N-7) | 9.11 | 8.01 | 7.44 | – | 7.54
